Experimental data taken from the supplement of paper PMC12823440, “Inhibitors supercharge kinase turnover through native proteolytic circuits” (Nature, 2025).
Structures can show the parent of a compound that is named as a salt. The list shows a part of the results. Hit calls seldom repeat between salt and free forms of one compound.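 Kinases, fused to nanoluciferase, were expressed in K562 cells; luminescence was measured every 4 h from 2 to 18 h as percent of control (DMSO = 100%, positive control = 0%). A time point is decreased if signal falls significantly (2 sigma). Hits were called by the authors by a rule that is not shown; the count of time points alone does not decide it.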

Chains of the proteins cited; added tags and fusions are not shown.
UniProt P50750, whole entry: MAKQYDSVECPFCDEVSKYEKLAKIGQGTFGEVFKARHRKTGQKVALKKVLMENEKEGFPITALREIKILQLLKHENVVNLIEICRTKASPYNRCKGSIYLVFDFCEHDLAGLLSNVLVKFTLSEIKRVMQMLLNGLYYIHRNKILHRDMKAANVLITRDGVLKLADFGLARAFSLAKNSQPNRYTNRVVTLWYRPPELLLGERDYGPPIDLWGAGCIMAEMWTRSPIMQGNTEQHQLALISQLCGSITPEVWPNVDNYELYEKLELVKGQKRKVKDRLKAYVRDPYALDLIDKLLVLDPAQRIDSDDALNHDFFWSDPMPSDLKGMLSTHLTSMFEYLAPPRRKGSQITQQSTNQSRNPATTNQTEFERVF

The compounds below were run against CDK9 (UniProt P50750) (assay: number of time points (of 4; 2 h point missing) at which kinase-Nluc abundance scored as decreased, DMSO-normalised (count); higher = more persistent destabilization). Conditions: K562; 2-18 h.

Compound | number of time points
CC(C)n1ncnc1-c1cn2c(n1)-c1ccc(O[C@@H](C)C(N)=O)cc1OCC2 (10 µM) | 0
O=C(c1cccc(Cl)c1F)N1CCN(Cc2cccc(Nc3nccs3)n2)CC1 (2.5 µM) | 0
COc1cc(F)ccc1-c1ncnc(Nc2cccc(C[S@](C)(=N)=O)c2)n1 [Atuveciclib] (2.5 µM) | 3
Cc1cnc(NC(=O)c2cc(Oc3cnc(C(=O)N(C)C)nc3)c3cc(C)oc3c2)cn1 (10 µM) | 0
CC1=C(C(=O)Nc2cc3cn[nH]c3cc2F)C(c2ccc(C(F)(F)F)cc2)CC(=O)N1 (stereo not drawn) (10 µM) | 0
NCC1CCC(CNc2nc(NCc3ccccc3OC(F)(F)F)ncc2[N+](=O)[O-])CC1 (stereo not drawn) [PKC-theta inhibitor] (10 µM) | 1
O=C1Nc2ccc(I)cc2/C1=C/c1cc(Br)c(O)c(Br)c1 (10 µM) | 4
COc1cc(-c2oc3cc(O)cc(O)c3c(=O)c2O)ccc1O [Isorhamnetin] (10 µM) | 0
O=C1OC(/C=C/c2ccccc2)=NC/1=C\c1cccnc1 (10 µM) | 0
Cn1ncc(NC(=O)c2nc(-c3c(F)cccc3F)sc2N)c1N1CC[C@@H](N)[C@H](F)CC1 (10 µM) | 0
CNC(=O)CNc1cnc2ccc(-c3ccc(OC)c(OC)c3)cc2n1 (10 µM) | 0
CO[C@H]1C[C@@H]2CC[C@@H](C)[C@@](O)(O2)C(=O)C(=O)N2CCCC[C@H]2C(=O)O[C@H]([C@H](C)C[C@@H]2CC[C@@H](OCCO)[C@H](OC)C2)CC(=O)[C@H](C)/C=C(\C)[C@@H](O)[C@@H](OC)C(=O)[C@H](C)C[C@H](C)/C=C/C=C/C=C/1C [Everolimus] (10 µM) | 0
O=C(Nc1cccnc1)c1cc(-c2ccnc(F)c2)ccc1OCc1ccccc1 (10 µM) | 0
COc1c(O)cc2oc(-c3ccc(O)cc3)cc(=O)c2c1O [Hispidulin] (10 µM) | 0
O=C1CC[C@H](NC(=O)Cc2ccccc2)C(=O)N1 [Antineoplaston A10] (10 µM) | 0
CC(C)Oc1ccc(F)c(-c2cnc(N)c(C(=O)Nc3cnccc3N3CCC[C@@H](C(=O)O)C3)n2)c1 (2 µM) | 0
Nc1nc2c(nc(Br)n2[C@@H]2O[C@@H]3COP(=O)(O)O[C@H]3[C@H]2O)c(=O)[nH]1 [8-Bromo-cGMP (sodium)] (10 µM) | 0
Cc1cc(-n2c(=O)ccc3c[nH]c4nccc-4c32)ccc1F (10 µM) | 0
CO[C@H]1CC[C@H](N2C(=O)CNc3ncc(-c4ccc(C(C)(C)O)nc4)nc32)CC1 (2.5 µM) | 0

Compound | number of time points
COc1cc2c(cc1OC)/C(=C/c1ccc(O)cc1)C(=O)N2 (10 µM) | 0
NCCOc1ccc(Cl)cc1C(=O)Nc1ccc([N+](=O)[O-])cc1Cl [HJC0152 hydrochloride] (2 µM) | 0
CCN(CC)CCOc1ccc(Nc2nc(-c3ccccc3NC(=O)CCN3CCN(C)CC3)nc3ccccc23)cc1 (2.5 µM) | 0
C=CC(=O)N1CCN(C(=O)CNc2cc(I)c(Cl)cc2O)CC1 [K-Ras(G12C) inhibitor 12] (10 µM) | 0
N[C@@H]1CCCN(c2c(/C=C3\SC(=O)NC3=O)cccc2-c2ccccc2)C1 (10 µM) | 0
O=C(Nc1cc(Cl)cc2c1[nH]c1cnccc12)c1cccnc1 (10 µM) | 0
C=C1C(=O)[C@@]23[C@H](O)C[C@@H]4C(C)(C)C(=O)CC[C@@]4(C)[C@@H]2CC[C@@H]1[C@H]3O [Glaucocalyxin A] (2.5 µM) | 0
C[C@@H]1O[C@@H](Oc2cc(O)c3c(=O)c(O[C@@H]4O[C@@H](C)[C@H](O)[C@@H](O)[C@H]4O)c(-c4ccc(O)cc4)oc3c2)[C@H](O)[C@H](O)[C@H]1O [Kaempferitrin] (10 µM) | 0
Cc1c(C(=O)Nc2ccc(Oc3ccnc4[nH]cc(-c5ccccc5)c34)c(F)c2)c(=O)n(-c2ccc(F)cc2)n1C (10 µM) | 0
c1nc2c(NC3CCCCC3)nc(Nc3ccc(N4CCOCC4)cc3)nc2[nH]1 [Reversine] (10 µM) | 0
CN1CCN(c2ccc(Nc3ncc4cc(C#N)c(=O)n(C5CCCC5)c4n3)cc2)CC1 (10 µM) | 0
NC[C@@](O)(c1ccc(Cl)cc1)c1ccc(-c2cn[nH]c2)cc1 (10 µM) | 1
Cc1ccc(-n2nc(C(C)(C)C)cc2NC(=O)Nc2ccc(OCCN3CCOCC3)cc2)cc1 (10 µM) | 0
c1ccc(Cn2c(-c3ccc(OC[C@H](C4CCNCC4)n4c(-c5ccccc5)nc5ccccc54)cc3)nc3ccccc32)cc1 [Deltarasin] (2.5 µM) | 0
C=CC(=O)N1CC[C@@H](Oc2nc(Nc3ccc(N4CCC(N5CCN(C)CC5)CC4)cc3)c(C(N)=O)nc2CC)C1 [Naquotinib (mesylate)] (2.5 µM) | 0
Cc1cc(O)c2c(c1)C(=O)c1cccc(O)c1C2=O [Chrysophanol] (2 µM) | 0
Cc1cc(C(=O)NC(C)(C)C)cc(C#Cc2ccc3c4c(oc3c2)C(C)(C)c2cc(NS(C)(=O)=O)ccc2C4=O)n1 (10 µM) | 1
Nc1nc(NCCNc2ncc(-n3ccnc3)c(-c3ccc(Cl)cc3Cl)n2)ccc1[N+](=O)[O-] (2.5 µM) | 0
Cn1c(CNc2cccc(C(=O)NCc3ccccc3C(F)(F)F)c2)nnc1-c1ccncc1 (10 µM) | 0

Of the compounds above, two contain a tert-butyl group:
Compound | number of time points
Cc1ccc(-n2nc(C(C)(C)C)cc2NC(=O)Nc2ccc(OCCN3CCOCC3)cc2)cc1 (10 µM) | 0
Cc1cc(C(=O)NC(C)(C)C)cc(C#Cc2ccc3c4c(oc3c2)C(C)(C)c2cc(NS(C)(=O)=O)ccc2C4=O)n1 (10 µM) | 1
